Measured data: PubChem BioAssay AID1159599 (NIAID, 2016)
In all, the deposit lists 756 reagents; shown is an unselected part. 130 of them (17%) count as active. 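Calls are two-sided: actives include siRNAs that raised the Tnf reporter as well as ones that lowered it.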 Reagents against one gene are numbered here. Not given: the amount of reagent.

Purpose: 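Which TLR pathway genes are needed for LPS-driven Tnf promoter activity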
Cell system: mouse RAW264.7 G9 macrophage reporter clone cells
Knock-down reagent: single siRNA against mouse genes
Duration: 48 to 72 h after siRNA transfection, LPS for the last 16 h
Conditions: LPS (Salmonella minnesota R595), 16 h before fixation; dose not stated
Detection: 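High-content imaging of red fluorescence driven by the Tnf promoter after LPS, background subtracted, scored per siRNA as a plate-wise median/MAD robust z-score, replicate mean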
Direction: Tnf reporter z-score: higher = stronger Tnf promoter reporter signal after LPS
Call rule: 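Active when the replicate-mean Tnf reporter z-score is about -1.5 or lower, or about 1.5 or higher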
Calls: active = strong change either way; inactive = little change

Tnfaip3 (tumor necrosis factor, alpha-induced protein 3) #1
- Tnf reporter z-score, replicate mean: 1.28
- call: inactive

Tnfaip3 (tumor necrosis factor, alpha-induced protein 3) #2
- Tnf reporter z-score, replicate mean: -0.375
- call: inactive

Tnfaip3 (tumor necrosis factor, alpha-induced protein 3) #3
- Tnf reporter z-score, replicate mean: -0.327
- call: inactive

Tnfaip3 (tumor necrosis factor, alpha-induced protein 3) #4
- Tnf reporter z-score, replicate mean: 0.312
- call: inactive

Tnfaip3 (tumor necrosis factor, alpha-induced protein 3) #5
- Tnf reporter z-score, replicate mean: 1.14
- call: inactive

Tnfaip3 (tumor necrosis factor, alpha-induced protein 3) #6
- Tnf reporter z-score, replicate mean: 1.25
- call: inactive

Pik3cg #1
- Tnf reporter z-score, replicate mean: 2.31
- call: active

Pik3cg #2
- Tnf reporter z-score, replicate mean: -1.75
- call: active

Pik3cg #3
- Tnf reporter z-score, replicate mean: 0.623
- call: inactive

Pik3cg #4
- Tnf reporter z-score, replicate mean: 0.522
- call: inactive

Pik3cg #5
- Tnf reporter z-score, replicate mean: -0.648
- call: inactive

Pik3cg #6
- Tnf reporter z-score, replicate mean: -1.97
- call: active

Dab2ip (disabled 2 interacting protein) #1
- Tnf reporter z-score, replicate mean: 0.163
- call: inactive

Dab2ip (disabled 2 interacting protein) #2
- Tnf reporter z-score, replicate mean: -0.685
- call: inactive

Dab2ip (disabled 2 interacting protein) #3
- Tnf reporter z-score, replicate mean: 1.41
- call: inactive

Dab2ip (disabled 2 interacting protein) #4
- Tnf reporter z-score, replicate mean: -1.24
- call: inactive

Dab2ip (disabled 2 interacting protein) #5
- Tnf reporter z-score, replicate mean: -1.4
- call: inactive

Dab2ip (disabled 2 interacting protein) #6
- Tnf reporter z-score, replicate mean: 1.06
- call: inactive

Pik3ca #1
- Tnf reporter z-score, replicate mean: 0.242
- call: inactive

Pik3ca #2
- Tnf reporter z-score, replicate mean: 1.18
- call: inactive

Pik3ca #3
- Tnf reporter z-score, replicate mean: 0.0122
- call: inactive

Pik3ca #4
- Tnf reporter z-score, replicate mean: -2.51
- call: active

Pik3ca #5
- Tnf reporter z-score, replicate mean: -0.839
- call: inactive

Pik3ca #6
- Tnf reporter z-score, replicate mean: 0.952
- call: inactive

7 of these entries, reformatted:
gene symbol,siRNA no.,"Tnf reporter z-score, replicate mean",call
"Tnfaip3 (tumor necrosis factor, alpha-induced protein 3)",6,1.25,inactive
Pik3cg,1,2.31,active
Pik3cg,2,-1.75,active
Pik3cg,3,0.623,inactive
Pik3cg,4,0.522,inactive
Pik3cg,5,-0.648,inactive
Pik3cg,6,-1.97,active

Next results follow:
Irak3 (interleukin-1 receptor-associated kinase 3) #1
- Tnf reporter z-score, replicate mean: -0.77
- call: inactive

Irak3 (interleukin-1 receptor-associated kinase 3) #2
- Tnf reporter z-score, replicate mean: -0.52
- call: inactive

Irak3 (interleukin-1 receptor-associated kinase 3) #3
- Tnf reporter z-score, replicate mean: -0.0364
- call: inactive

Irak3 (interleukin-1 receptor-associated kinase 3) #4
- Tnf reporter z-score, replicate mean: -0.0172
- call: inactive

Irak3 (interleukin-1 receptor-associated kinase 3) #5
- Tnf reporter z-score, replicate mean: -0.919
- call: inactive

Irak3 (interleukin-1 receptor-associated kinase 3) #6
- Tnf reporter z-score, replicate mean: -1.55
- call: active

Tlr8 (toll-like receptor 8) #1
- Tnf reporter z-score, replicate mean: 1.07
- call: inactive

Tlr8 (toll-like receptor 8) #2
- Tnf reporter z-score, replicate mean: -0.341
- call: inactive

Tlr8 (toll-like receptor 8) #3
- Tnf reporter z-score, replicate mean: -0.34
- call: inactive

Tlr8 (toll-like receptor 8) #4
- Tnf reporter z-score, replicate mean: 0.784
- call: inactive

Tlr8 (toll-like receptor 8) #5
- Tnf reporter z-score, replicate mean: -2.05
- call: active

Tlr8 (toll-like receptor 8) #6
- Tnf reporter z-score, replicate mean: 0.174
- call: inactive

Irf7 (interferon regulatory factor 7) #1
- Tnf reporter z-score, replicate mean: -1.84
- call: active

Irf7 (interferon regulatory factor 7) #2
- Tnf reporter z-score, replicate mean: -0.638
- call: inactive

Irf7 (interferon regulatory factor 7) #3
- Tnf reporter z-score, replicate mean: -0.245
- call: inactive

Irf7 (interferon regulatory factor 7) #4
- Tnf reporter z-score, replicate mean: 0.861
- call: inactive

Irf7 (interferon regulatory factor 7) #5
- Tnf reporter z-score, replicate mean: -0.0683
- call: inactive

Irf7 (interferon regulatory factor 7) #6
- Tnf reporter z-score, replicate mean: 0.147
- call: inactive

Tab2 (TGF-beta activated kinase 1/MAP3K7 binding protein 2) #1
- Tnf reporter z-score, replicate mean: -0.124
- call: inactive

Tab2 (TGF-beta activated kinase 1/MAP3K7 binding protein 2) #2
- Tnf reporter z-score, replicate mean: 0.0308
- call: inactive

Tab2 (TGF-beta activated kinase 1/MAP3K7 binding protein 2) #3
- Tnf reporter z-score, replicate mean: -0.518
- call: inactive

Tab2 (TGF-beta activated kinase 1/MAP3K7 binding protein 2) #4
- Tnf reporter z-score, replicate mean: 0.244
- call: inactive

Tab2 (TGF-beta activated kinase 1/MAP3K7 binding protein 2) #5
- Tnf reporter z-score, replicate mean: -1.06
- call: inactive

Tab2 (TGF-beta activated kinase 1/MAP3K7 binding protein 2) #6
- Tnf reporter z-score, replicate mean: -1.16
- call: inactive
